Experimental data: PubChem BioAssay AID686938 (Drosophila RNAi Screening Center, 2013)

- Test: 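Fly genes required for calcium entry once internal stores are emptied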 (primary screen)
- Cell system: Drosophila S2R+ cells
- Reagents: long dsRNA against Drosophila genes, about 0.25 µg dsRNA per well, roughly 10,000 cells
- Time to read-out: 5 days of knock-down before the calcium assay
- Conditions: thapsigargin (SERCA pump blocker) to empty calcium stores; entry signal taken 4 min after adding it
- Detection: 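Duplicate raw fluo-4 intensities per well from a plate reader, at rest and four minutes after thapsigargin emptied calcium stores; entry-to-rest ratio filled for only some wells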
- Direction: calcium entry signal: higher = stronger calcium signal after store depletion; resting calcium signal: higher = higher resting calcium signal
- Hit rule: 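Called when the plate z-score of the entry-to-rest ratio, mean of duplicates, falls below −3; wells with low overall dye signal (Fmax z below −2) or more than five off-targets excluded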
- Calls: active = strongly reduced calcium entry; inactive = no strong reduction
In all, the deposit lists about 23,000 reagents; shown is a random part of those with a known target gene and a result. Of all reagents, 75 (0.33%) got an active call. 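Raw plate signals without normalisation; calls rest on plate z-scores that were not deposited; ratio present for only 364 wells.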 A number with no mark means an inactive call. Names joined by + are all predicted targets of the reagent. Not stated in the record: the dose of the treatment.

{"gene":"Amt","DRSC id":"DRSC16055","calcium entry signal, replicate 1 (fluorescence units)":3.72e7,"calcium entry signal, replicate 2 (fluorescence units)":4.44e7,"resting calcium signal, replicate 1 (fluorescence units)":1.83e7,"resting calcium signal, replicate 2 (fluorescence units)":7.35e7}
{"gene":"CG5742","DRSC id":"DRSC06949","calcium entry signal, replicate 1 (fluorescence units)":3.97e7,"calcium entry signal, replicate 2 (fluorescence units)":3.41e7,"resting calcium signal, replicate 1 (fluorescence units)":1.83e7,"resting calcium signal, replicate 2 (fluorescence units)":1.79e7}
{"gene":"PH4alphaNE2","DRSC id":"DRSC16544","calcium entry signal, replicate 1 (fluorescence units)":3.11e7,"calcium entry signal, replicate 2 (fluorescence units)":4.01e7,"resting calcium signal, replicate 1 (fluorescence units)":1.60e7,"resting calcium signal, replicate 2 (fluorescence units)":1.74e7}
{"gene":"Art8","DRSC id":"DRSC02530","calcium entry signal, replicate 1 (fluorescence units)":3.11e7,"calcium entry signal, replicate 2 (fluorescence units)":4.40e7,"resting calcium signal, replicate 1 (fluorescence units)":1.67e7,"resting calcium signal, replicate 2 (fluorescence units)":1.99e7}
{"gene":"CG6678","DRSC id":"DRSC16092","calcium entry signal, replicate 1 (fluorescence units)":2.21e7,"calcium entry signal, replicate 2 (fluorescence units)":2.23e7,"resting calcium signal, replicate 1 (fluorescence units)":9.77e6,"resting calcium signal, replicate 2 (fluorescence units)":1.09e7}
{"gene":"CG3842","DRSC id":"DRSC18326","calcium entry signal, replicate 1 (fluorescence units)":2.03e7,"calcium entry signal, replicate 2 (fluorescence units)":3.15e7,"resting calcium signal, replicate 1 (fluorescence units)":1.05e7,"resting calcium signal, replicate 2 (fluorescence units)":1.26e7}
{"gene":"Mco4","DRSC id":"DRSC20061","calcium entry signal, replicate 1 (fluorescence units)":2.54e7,"calcium entry signal, replicate 2 (fluorescence units)":3.25e7,"resting calcium signal, replicate 1 (fluorescence units)":1.44e7,"resting calcium signal, replicate 2 (fluorescence units)":1.56e7}
{"gene":"Polr3D","DRSC id":"DRSC10485","calcium entry signal, replicate 1 (fluorescence units)":2.87e7,"calcium entry signal, replicate 2 (fluorescence units)":4.19e7,"resting calcium signal, replicate 1 (fluorescence units)":1.37e7,"resting calcium signal, replicate 2 (fluorescence units)":3.14e7}
{"gene":"AstC","DRSC id":"DRSC02403","calcium entry signal, replicate 1 (fluorescence units)":3.58e7,"calcium entry signal, replicate 2 (fluorescence units)":5.86e7,"resting calcium signal, replicate 1 (fluorescence units)":1.77e7,"resting calcium signal, replicate 2 (fluorescence units)":2.48e7}
{"gene":"bora","DRSC id":"DRSC10744","calcium entry signal, replicate 1 (fluorescence units)":3.44e7,"calcium entry signal, replicate 2 (fluorescence units)":5.04e7,"resting calcium signal, replicate 1 (fluorescence units)":1.67e7,"resting calcium signal, replicate 2 (fluorescence units)":3.35e7}
{"gene":"CG11248","DRSC id":"DRSC11644","calcium entry signal, replicate 1 (fluorescence units)":3.39e7,"calcium entry signal, replicate 2 (fluorescence units)":3.92e7,"resting calcium signal, replicate 1 (fluorescence units)":1.55e7,"resting calcium signal, replicate 2 (fluorescence units)":2.55e7}
{"gene":"Tsp42Ej","DRSC id":"DRSC06113","calcium entry signal, replicate 1 (fluorescence units)":3.77e7,"resting calcium signal, replicate 1 (fluorescence units)":1.97e7}
{"gene":"RpL8","DRSC id":"DRSC08532","calcium entry signal, replicate 1 (fluorescence units)":1.31e7,"calcium entry signal, replicate 2 (fluorescence units)":1.37e7,"resting calcium signal, replicate 1 (fluorescence units)":1.02e7,"resting calcium signal, replicate 2 (fluorescence units)":9.83e6}
{"gene":"RpL8","DRSC id":"DRSC08695","calcium entry signal, replicate 1 (fluorescence units)":1.45e7,"calcium entry signal, replicate 2 (fluorescence units)":2.30e7,"resting calcium signal, replicate 1 (fluorescence units)":1.08e7,"resting calcium signal, replicate 2 (fluorescence units)":1.13e7}

The list goes on; the last 3 above are carried over.
{"gene":"Tsp42Ej","DRSC id":"DRSC06113","calcium entry signal, replicate 1 (fluorescence units)":3.77e7,"resting calcium signal, replicate 1 (fluorescence units)":1.97e7}
{"gene":"RpL8","DRSC id":"DRSC08532","calcium entry signal, replicate 1 (fluorescence units)":1.31e7,"calcium entry signal, replicate 2 (fluorescence units)":1.37e7,"resting calcium signal, replicate 1 (fluorescence units)":1.02e7,"resting calcium signal, replicate 2 (fluorescence units)":9.83e6}
{"gene":"RpL8","DRSC id":"DRSC08695","calcium entry signal, replicate 1 (fluorescence units)":1.45e7,"calcium entry signal, replicate 2 (fluorescence units)":2.30e7,"resting calcium signal, replicate 1 (fluorescence units)":1.08e7,"resting calcium signal, replicate 2 (fluorescence units)":1.13e7}
{"gene":"CG17187","DRSC id":"DRSC15181","calcium entry signal, replicate 1 (fluorescence units)":2.91e7,"calcium entry signal, replicate 2 (fluorescence units)":2.34e7,"resting calcium signal, replicate 1 (fluorescence units)":1.56e7,"resting calcium signal, replicate 2 (fluorescence units)":1.34e7}
{"gene":"Osi4","DRSC id":"DRSC12134","calcium entry signal, replicate 1 (fluorescence units)":4.13e7,"calcium entry signal, replicate 2 (fluorescence units)":3.59e7,"resting calcium signal, replicate 1 (fluorescence units)":2.11e7,"resting calcium signal, replicate 2 (fluorescence units)":1.69e7}
{"gene":"eIF6","DRSC id":"DRSC04674","calcium entry signal, replicate 1 (fluorescence units)":1.99e7,"resting calcium signal, replicate 1 (fluorescence units)":1.02e7}
{"gene":"Arfrp1","DRSC id":"DRSC18417","calcium entry signal, replicate 1 (fluorescence units)":2.74e7,"calcium entry signal, replicate 2 (fluorescence units)":3.08e7,"resting calcium signal, replicate 1 (fluorescence units)":1.34e7,"resting calcium signal, replicate 2 (fluorescence units)":1.36e7}
{"gene":"Pex14","DRSC id":"DRSC11754","calcium entry signal, replicate 1 (fluorescence units)":2.88e7,"calcium entry signal, replicate 2 (fluorescence units)":4.29e7,"resting calcium signal, replicate 1 (fluorescence units)":1.37e7,"resting calcium signal, replicate 2 (fluorescence units)":1.85e7}
{"gene":"CG18294 + 825-Oak + CG32214 + 2 more","DRSC id":"DRSC22210","calcium entry signal, replicate 1 (fluorescence units)":3.42e7,"calcium entry signal, replicate 2 (fluorescence units)":4.54e7,"resting calcium signal, replicate 1 (fluorescence units)":1.66e7,"resting calcium signal, replicate 2 (fluorescence units)":2.23e7}
{"gene":"lolal","DRSC id":"DRSC06948","calcium entry signal, replicate 1 (fluorescence units)":3.33e7,"calcium entry signal, replicate 2 (fluorescence units)":3.16e7,"resting calcium signal, replicate 1 (fluorescence units)":1.68e7,"resting calcium signal, replicate 2 (fluorescence units)":1.76e7}
